Results deposited as PubChem BioAssay AID1259405 (NCATS, 2018).
The whole screen tested about 50,000 reagents; shown is a random part of them. About 4,000 of all reagents (8%) count as active. 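Mouse siRNA library applied to hamster cells; one well for each siRNA.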 The numbers tell different reagents against one gene apart. Reagent sequences are not shown.

Aim: 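Knock-downs that lift recombinant protein yield in hamster ovary cells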 (primary screen)
Cells: Chinese hamster CHO-K1 ovary cells with stable secreted eGFP expression
Reagents: single siRNA against mouse genes, 0.8 pmol siRNA per well (2 µl of 400 nM stock)
Timing: 3 days
Detection: 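Percent of the per-plate non-targeting control median for intracellular GFP per well by laser scanning cytometry and for cell viability by ATP luminescence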
Reading the numbers: GFP, % of control: higher = more GFP per well, higher productivity; viability (ATP), % of control: higher = more viable cells (more ATP)
Hit rule: 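Called active when intracellular GFP, relative to negative control, is at or above 120%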

Prr15 #1
- GFP, % of control: 47.2
- viability (ATP), % of control: 77.7
- call: inactive

Prr15 #2
- GFP, % of control: 97.5
- viability (ATP), % of control: 84.5
- call: inactive

Prr15 #3
- GFP, % of control: 49.6
- viability (ATP), % of control: 71.7
- call: inactive

Cnpy3 #1
- GFP, % of control: 93.5
- viability (ATP), % of control: 120
- call: inactive

Cnpy3 #2
- GFP, % of control: 89.9
- viability (ATP), % of control: 101
- call: inactive

Cnpy3 #3
- GFP, % of control: 85.4
- viability (ATP), % of control: 91.8
- call: inactive

Rtbdn #1
- GFP, % of control: 90.3
- viability (ATP), % of control: 69.4
- call: inactive

Rtbdn #2
- GFP, % of control: 28.9
- viability (ATP), % of control: 46.3
- call: inactive

Rtbdn #3
- GFP, % of control: 42.4
- viability (ATP), % of control: 70.2
- call: inactive

Fktn #1
- GFP, % of control: 58.5
- viability (ATP), % of control: 65.4
- call: inactive

Fktn #2
- GFP, % of control: 98.6
- viability (ATP), % of control: 74.1
- call: inactive

Fktn #3
- GFP, % of control: 65.4
- viability (ATP), % of control: 82.1
- call: inactive

Tas2r123 #1
- GFP, % of control: 76.3
- viability (ATP), % of control: 84.6
- call: inactive

Tas2r123 #2
- GFP, % of control: 0.528
- viability (ATP), % of control: 219
- call: inactive

Tas2r123 #3
- GFP, % of control: 65.9
- viability (ATP), % of control: 65.6
- call: inactive

Gabrr1 #1
- GFP, % of control: 50.1
- viability (ATP), % of control: 79.3
- call: inactive

Gabrr1 #2
- GFP, % of control: 62.2
- viability (ATP), % of control: 65.5
- call: inactive

Gabrr1 #3
- GFP, % of control: 69.1
- viability (ATP), % of control: 64.6
- call: inactive

Dync1li2 #1
- GFP, % of control: 122
- viability (ATP), % of control: 113
- call: active

Dync1li2 #2
- GFP, % of control: 51
- viability (ATP), % of control: 66.3
- call: inactive

Plag1 #1
- GFP, % of control: 73.2
- viability (ATP), % of control: 88
- call: inactive

Plag1 #2
- GFP, % of control: 34
- viability (ATP), % of control: 46.2
- call: inactive

Plag1 #3
- GFP, % of control: 41.8
- viability (ATP), % of control: 69.8
- call: inactive

Ctla4 #1
- GFP, % of control: 49.7
- viability (ATP), % of control: 79
- call: inactive

Ctla4 #2
- GFP, % of control: 79.2
- viability (ATP), % of control: 50.9
- call: inactive

Ctla4 #3
- GFP, % of control: 70.4
- viability (ATP), % of control: 84
- call: inactive

Dtnbp1 #1
- GFP, % of control: 83.1
- viability (ATP), % of control: 70.6
- call: inactive

Dtnbp1 #2
- GFP, % of control: 69.7
- viability (ATP), % of control: 83.9
- call: inactive

Dtnbp1 #3
- GFP, % of control: 78.5
- viability (ATP), % of control: 70
- call: inactive

Dact2 #1
- GFP, % of control: 104
- viability (ATP), % of control: 77.9
- call: inactive

Dact2 #2
- GFP, % of control: 48
- viability (ATP), % of control: 70.4
- call: inactive

Dact2 #3
- GFP, % of control: 90.4
- viability (ATP), % of control: 71.4
- call: inactive

Otub1 #1
- GFP, % of control: 78.3
- viability (ATP), % of control: 87.9
- call: inactive

Otub1 #2
- GFP, % of control: 100
- viability (ATP), % of control: 74.4
- call: inactive

Cmas #1
- GFP, % of control: 106
- viability (ATP), % of control: 105
- call: inactive

Cmas #2
- GFP, % of control: 121
- viability (ATP), % of control: 112
- call: active

Cmas #3
- GFP, % of control: 129
- viability (ATP), % of control: 136
- call: active

Ldlrad3 #1
- GFP, % of control: 81.2
- viability (ATP), % of control: 43.8
- call: inactive

Ldlrad3 #2
- GFP, % of control: 68.3
- viability (ATP), % of control: 68.2
- call: inactive

Ldlrad3 #3
- GFP, % of control: 114
- viability (ATP), % of control: 89.2
- call: inactive

Only “viability (ATP), % of control” (4 entries from above):
Dtnbp1 #1	70.6
Dtnbp1 #2	83.9
Dtnbp1 #3	70
Dact2 #1	77.9
